Assay results from US20150359798A1, “PIPERAZINYL DERIVATIVE REDUCES HIGH-FAT DIET-INDUCED ACCUMULATION OF FAT IN THE LIVERS, […]” (priority 2011, published 2015).

Test system: mice fed with HFD
Assay: HFD-fed mice, 8 weeks, gavage: serum/liver lipids, body weight, food intake
Type: in vivo
Experimental: In the 8 week experiment, C57BL/6J male mice (21-22 g), after fasting, were fed a HFD as a model of hyperlipidemia for 8 weeks. During the 2 month experiments, mice fasted for one night before the experiment was changed from a standard diet (STD) to a HFD and then the mice were randomly divided into 5 groups, including 2 control and 3 treatment groups. Six mice were used in each group. […] Liver from the protection group supplemented with KMUP-1 HCl (1 mg/kg/day) were used to determine the HMG CoA reductase expression.
Within 2 months, the 3 day food intake average for each animal was measured. The weight gain and plasma lipid levels of each group were determined and compared to the non-treatment control group. Mouse blood was collected during the daytime by cardiac puncture followed by centrifugation at 90 g (Benchtop Centrifuge, U.S.A.) to separate the serum, and frozen at −80° C., for biochemical analysis using a Hitachi Clinical Analyzer 7070 (Hitachi High-Technologies Co. Tokyo, Japan). Agents used in the assays were Obtained from Merck & Co. (Kenilworth, N.J., U.S.A.). Triglyceride (TG), total cholesterol, HDL cholesterol and LDL cholesterol in mouse serum were measured by methods used in the clinic. To measure the hepatic TG, isolated liver were cut into small chips.

SMILES: Cn1c(=O)c2c(ncn2CCN2CCN(c3ccccc3Cl)CC2)n(C)c1=O [KMUP-1, 7-[2-[4-(2-chlorophenyl)piperazinyl]ethyl]-1,3-dimethyl xanthine]
- food intake (2.5 mg/kg): 2.3 ± 0.1 g/day
- food intake (5 mg/kg): 2.2 ± 0.1 g/day
